Measurements as given in paper PMC10826163.
No constants are given. Whether binding was seen depends on the method and setting. Binding seen in cells or lysates may run through a third protein. A yes stands for co-enrichment or nearness to the bait. Other partners may have been found.

biological target: Traf2-and NcK-interacting kinase (rat (endogenous in rat hippocampus)); experiment: affinity purification with mass spectrometry; anti-TNIK immunoprecipitate from rat hippocampal lysate (control: normal mouse IgG), SDS-PAGE, silver stain, bands seen only in the TNIK Co-IP cut out, trypsin digest, LC-MS/MS, Mascot against UniProt Rattus norvegicus, score >=20

binding	Binder
binds	Trafficking protein particle complex 12 (protein, UniProt D3ZE49 1-798) METAKDGEQSPSEASPPTQAGPETISEPVPLEEEGQPLYHEETIDLGGDDFASEETEPTSEGSHNFGDKLNEHMMESVLISDSPNNSEGDVGDLGCLQDVGEPPRGATDHRLPDSTDKEVVDTLSNGSETDGDDTPRDISDMTPDSRASLKEDSTQEDVPAMPALENAGTEEVGPKDSLVPREEQTSEVSSSQSSSKDEPLPVCTIFSQATSTSSQPHLFLQDGFESQMVKSPSFSSTSETSAKTPPPMVQPSPSLSTFFGDTMSSNSLASDFFDSFTTSTFISVSNPNAGSPVPEKLASLTAPVGEKSPDSTSPSYSTRMDRSESGVSRAALDVPESPKPFSQIQAVFAGSDDPFATALSMSEMDRRNDAWLPSQATREVLMSVATQQYGTVFIDKENLTMPGLKFDNIQGDAVKDLMLRFLGEKAAAKRQVLNASSVEQSFVGLKQLISCRNWRAAVDLCGRLLTAHGQGYGKSGLPTNHTTDSLQLWFVRLALLVKLGLFQNAEMEFEPFGNLDQPDLYYEYYPHVYPGRRGSMVPFSMRILHAELQQYLGNPQESLDRLHRVKTVCSKILANLEQGLAEDGGLSSVTQESRQASVQLWRSRLGRVLYSMANCLLLMKDYVLAVNAYLTVIKYYPEQEPQLLSGIGRILLQQIGDIKTAEKYFQDVEKVTQKLDGLQGKIMVLMNRAFLYLGQNNFAEAHKFFTEILRMDPTNAVANNNAAVCLLYLGKLKDSLRQLEAMVQQDPRHYLHESVLFNLTTMYELESSRSMQKKQSLLEAVASKEGDSFNTQCLKLA
binds	RAS protein activator like 1 (GAP1 like) (predicted) (protein, UniProt D3ZHY9 1-801) MAKSGSLSIRVVEGRALPAKDVSGSSDPYCLVKVDDEVVARTATIWRSLSPFWGEEYTVHLPLDFHHLAFYVLDEDTVGHDDIIGKISLSKEAITADPRGIDSWINLSRVDPDEEVQGEVCLAVKLLEDARGRCLRCHVRQARDLAPRDISGTSDPFARVFWGSRSLETSTIKKTRFPHWDEVLELREAPGTTSPLRVELWDWDMVGKNDFLGMVEFTPQTLQQKPPNGWFRLLPFPRAEDSGGSLGALRLKVRLTEDRVLPSQYYQPLMELLLESVQGPAEEDTTSPLALLEELASGDCRQDLATKLVKLFLGRGLAGPFLDYLTRREVARTNDPNTLFRSNSLASKSMEQFMKLVGMRYLHEVLRPVISRVFEEKKYMELDPSKMDLNRSRRISFKGTPTEEQVRETSLGLLTGYLGSVVDAIVSSAGRCPLALRLAFKQLQQCVEKRFPGMEHQDVKYLATSGFLFLRFFAPAILTPKLFDLRDHHADPQTSRSLLLLAKAVQSIGNLGQQLGQGKEQWLAPLHPFLLQSISRVRDFLDQLVDVDGDEEAGGSTCALVQPSTIVREGFLLKRKEEPASLATRFAFKKRYFRLSGRDLSYSKTPEWQVHSSIPLSCIRAVERVDEGAFQLPHVMQVVTQDGTGASHTTYLQCKNVNDLNQWLSALRKASAPNPGKLAACHPGAFRSGRWTCCLQAERSAVGCSRTHSAVTLGDWSDPLDPDAEAQMVYRQLLLGRDQLRLKLLEDSSLDTAPDVDPGKDSSAVDGPCAEVLAQQREATTRLLQVLEDLEQAHEEFQKRG
binds	RCG21137 (protein, UniProt Q562B5 1-288) MAFRQALQLAACGLAGGSAAVLFSAVAVGKPRAGGDADTRTTEPLAWTGARPGHGVWDSNWDRREPLSLINLKKRNVEFGEDELASRLDHYKAKATRHIFLIRHSQYNVDGSMEKDRTLTPLGREQAELTGIRLASLGLKFNKIVHSSMTRAVETTDIISKHLPGVCRVSTDLLREGAPIEPDPPVSHWKPEAVQYYEDGARIEAAFRNYIHRADAKQEEDSYEIFICHANVIRYIVCRALQFPPEGWLRLSLNNGSITHLVIRPNGRVALRTLGDTGFMPPDKITRS
